Test results: publication PMC7522278

Protein sequences, listed by entry. Tags and fused reporters are not part of them. Lines headed by an entry give the natural chain unless they say otherwise; changes in a name come on top.
UniProt P49366: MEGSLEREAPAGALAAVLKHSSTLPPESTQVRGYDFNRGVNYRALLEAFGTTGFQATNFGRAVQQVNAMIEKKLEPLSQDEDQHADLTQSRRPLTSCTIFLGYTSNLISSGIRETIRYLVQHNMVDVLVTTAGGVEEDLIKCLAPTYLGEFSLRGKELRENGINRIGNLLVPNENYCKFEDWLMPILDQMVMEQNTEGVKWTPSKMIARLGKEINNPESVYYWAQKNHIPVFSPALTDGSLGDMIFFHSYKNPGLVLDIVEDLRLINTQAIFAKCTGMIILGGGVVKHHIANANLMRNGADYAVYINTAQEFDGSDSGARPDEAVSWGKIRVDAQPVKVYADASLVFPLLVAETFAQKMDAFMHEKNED
UniProt P27361: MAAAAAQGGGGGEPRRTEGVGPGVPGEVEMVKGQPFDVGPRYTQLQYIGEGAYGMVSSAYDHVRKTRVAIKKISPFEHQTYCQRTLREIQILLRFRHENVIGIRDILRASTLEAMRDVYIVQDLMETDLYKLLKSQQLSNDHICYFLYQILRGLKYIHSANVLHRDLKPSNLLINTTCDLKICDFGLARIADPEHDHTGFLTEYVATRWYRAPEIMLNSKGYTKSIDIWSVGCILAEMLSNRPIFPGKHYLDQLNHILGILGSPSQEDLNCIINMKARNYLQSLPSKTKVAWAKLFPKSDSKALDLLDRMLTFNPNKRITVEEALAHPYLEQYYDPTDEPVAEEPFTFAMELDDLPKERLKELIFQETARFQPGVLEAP

Tests used:
[1] = molecular target: SFB-tagged DHPS-∆EBM (human) (UniProt P49366); experiment: co-IP; SFB-tagged bait transiently expressed in HEK293T; lysate in NETN buffer, S protein beads 2 h at 4 °C, three washes, Western blot; also with mock- or PMA-treated cells (binding not affected)
[2] = molecular target: DHPS-EBM-LRRAAA (triple mutation) (human) (UniProt P49366); experiment: as above

binding [1]: no binding | binding [2]: no binding
Substance: endogenous ERK1 (from UniProt P27361 1-379) (enzyme)

These are yes or no findings as the source states them, for the method shown. In cells and extracts the contact can be indirect.
